Experimental data published in patent US20100173834A1 (priority 2007, published 2010).

How the values were obtained:
[1] = general procedure: Fmoc solid-phase peptide synthesis; Rink Amide MBHA resin (Novabiochem), 0.74 mmol/g; Wang resin if R1 is -OH; HBTU/HOBT/DIPEA; settings: whole synthesis, HPLC, scale of the general procedure 1.0 mmole
[2] = general procedure: Fmoc solid-phase peptide synthesis; Rink Amide MBHA; HBTU/HOBT/DIPEA; settings: whole synthesis

| Substance | final purity (method not given) [1] [%] | also measured |
| --- | --- | --- |
| Ac-HRC[dA]H[dF]RWC-NH2 (disulfide 3-9) | 99.9 |  |
| Ac-Pff-Arg-c(Cys-D-Ala-His-D-Phe-Arg-Trp-Cys)-NH2 | 99.9 |  |
| Ac-2-Nal-Arg-c(Cys-D-Ala-His-D-Phe-Arg-Trp-Cys)-NH2 |  | final HPLC purity ([2]; HPLC, scale 0.16 mmole): 99.9%; isolated mass ([2]; scale 0.16 mmole): Approximately 62 mg; isolated yield ([2]; scale 0.16 mmole): 29% |
| Ac-1-Nal-Arg-c(Cys-D-Ala-His-D-Phe-Arg-Trp-Cys)-NH2 | 99.9 |  |
| H-HRC[dA]H[dF]RWC-NH2 (disulfide 3-9) |  | final purity (method not given) ([2]; HPLC, scale 0.5 mmole): 99.9%; isolated mass ([2]; scale 0.5 mmole): 227 mg; isolated yield ([2]; scale 0.5 mmole): 37% |
| Ac-Tyr-Arg-c(Cys-D-Ala-His-D-Phe-Arg-Trp-Cys)-NH2 | 98.0 |  |
| Ac-WRC[dA]H[dF]RWC-NH2 (disulfide 3-9) | 98.8 |  |
| Ac-FRC[dA]H[dF]RWC-NH2 (disulfide 3-9) | 98.9 |  |

Bridges are numbered along the chain shown (N, C = ends). [ ]: non-standard residue; d: D form.
